Reference: patent US9763942B2, “Serine/threonine kinase inhibitors” (Array BioPharma Inc., priority 2013, dated 2017)
Some results were stated once for a whole list of compounds, not compound by compound. Values belong to the molecule of their own block, whether it stands above or below them.

By UniProt entry, the sequences of proteins in these tests, tags left out. Residues count along the entry.
UniProt P28482, 8-360: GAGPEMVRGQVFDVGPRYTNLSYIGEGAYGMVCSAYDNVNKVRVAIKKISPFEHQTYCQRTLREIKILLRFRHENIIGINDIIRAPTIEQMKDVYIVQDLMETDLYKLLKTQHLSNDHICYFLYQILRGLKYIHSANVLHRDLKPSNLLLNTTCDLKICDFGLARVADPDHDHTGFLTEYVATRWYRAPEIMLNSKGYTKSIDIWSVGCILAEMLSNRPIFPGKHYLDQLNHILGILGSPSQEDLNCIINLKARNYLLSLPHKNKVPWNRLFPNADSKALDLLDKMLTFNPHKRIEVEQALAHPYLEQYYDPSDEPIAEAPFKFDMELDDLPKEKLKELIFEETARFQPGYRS

Target: T1, human ERK-2 (Mitogen Activated Kinase 1) (Homo sapiens, UniProt P28482)
T1 construct: n-terminal 6-His fusion protein in E. coli and corresponding to aa 8-360; 6-His (N); made in house; host or cells: E. coli
Test: ERK-2 Enzymatic Assay
Assay type: biochemical
Text: Table 1 contains representative data for Examples disclosed herein.

Compound: CCC(C)Cn1nnc2cc(-c3ccnc(N[C@@H](C)CO)n3)ccc21 (stereo partly drawn) [Example 98, (2S)2-((4-(1-(2-methylbutyl)-1H-benzo[d][1,2,3]triazol-5-yl)pyrimidin-2-yl)amino)propan-1-ol]
IC50: < 1 µM

Compound: Cn1nccc1Nc1nccc(-c2cnc3c(c2)nnn3Cc2cccc(Cl)c2)n1 [Example 124, 4-(3-(3-chlorobenzyl)-3H-[1,2,3]triazolo[4,5-b]pyridin-6-yl)-N-(1-methyl-1H-pyrazol-5-yl)pyrimidin-2-amine]
IC50: < 1 µM

Compound: CN(C)CC(c1ccc(Cl)c(F)c1)n1nnc2cc(-c3ccnc(Nc4ccnn4C)n3)ccc21 (stereo not shown) [Example 91, 4-(1-(1-(4-chloro-3-fluorophenyl)-2-(dimethylamino)ethyl)-1H-benzo[d][1,2,3]triazol-5-yl)-N-(1-methyl-1H-pyrazol-5-yl)pyrimidin-2-amine]
IC50: < 1 µM

Compound: CN1C[C@@H](n2nnc3cc(-c4ccnc(Nc5ccnn5C)n4)ccc32)[C@H](c2cc(F)cc(F)c2)C1 [Example 76, 4-(1-((3S,4R)-4-(3,5-difluorophenyl)-1-methylpyrrolidin-3-yl)-1H-benzo[d][1,2,3]triazol-5-yl)-N-(1-methyl-1H-pyrazol-5-yl)pyrimidin-2-amine]
IC50: < 1 µM

Compound: Cn1nccc1Nc1nccc(-c2ccc3c(c2)nnn3[C@@H]2CNC[C@H]2c2ccc(F)c(F)c2)n1 [Example 78, 4-(1-((3S,4R)-4-(3,4-difluorophenyl)pyrrolidin-3-yl)-1H-benzo[d][1,2,3]triazol-5-yl)-N-(1-methyl-1H-pyrazol-5-yl)pyrimidin-2-amine]
IC50: < 1 µM

Continued, values first:

IC50: < 1 µM
Compound: Cn1nccc1Nc1nccc(-c2ccc3c(c2)nnn3C2CCc3cc(Cl)ccc32)n1 (stereo not shown) [Example 59, 4-(1-(5-chloro-2,3-dihydro-1H-inden-1-yl)-1H-benzo[d][1,2,3]triazol-5-yl)-N-(1-methyl-1H-pyrazol-5-yl)pyrimidin-2-amine]

IC50: < 1 µM
Compound: Cn1nccc1Nc1nccc(-c2cnc3c(c2)nnn3Cc2ccc(F)c(Cl)c2)n1 [Example 121, 4-(3-(3-chloro-4-fluorobenzyl)-3H-[1,2,3]triazolo[4,5-b]pyridin-6-yl)-N-(1-methyl-1H-pyrazol-5-yl)pyrimidin-2-amine]

IC50: < 1 µM
Compound: Cn1nccc1Nc1nccc(-c2ccc3c(c2)nnn3CC2CC(F)(F)C2)n1 [Example 34, 4-(1-((3,3-difluorocyclobutyl)methyl)-1H-benzo[d][1,2,3]triazol-5-yl)-N-(1-methyl-1H-pyrazol-5-yl)pyrimidin-2-amine]

IC50: < 1 µM
Compound: COc1ccc(Cn2nnc3cc(-c4ccnc(NCC5COC5)n4)ccc32)cc1F [Example 17, 4-(1-(3-fluoro-4-methoxybenzyl)-1H-benzo[d][1,2,3]triazol-5-yl)-N-(oxetan-3-ylrnethyl)pyrimidin-2-amine]

IC50: < 1 µM
Compound: COc1ccc(Cn2nnc3cc(-c4ccnc(NC5(C)COC5)n4)ccc32)cc1F [Example 21, 4-(1-(3-fluoro-4-methoxybenzyl)-1H-benzo[d][1,2,3]triazol-5-yl)-N-(3-methyloxetan-3-yl)pyrimidin-2-amine]

IC50: < 1 µM
Compound: COc1ccc(Cn2nnc3cc(-c4ccnc(NCC5CC5)n4)ccc32)cc1F [Example 14, N-(cyclopropylmethyl)-4-(1-(3-fluoro-4-methoxybenzyl)-1H-benzo[d][1,2,3]triazol-5-yl)pyrimidin-2-amine]

IC50: < 1 µM
Compound: Cc1ccc(Cn2nnc3cc(-c4ccnc(Nc5ccnn5C)n4)ccc32)cn1 [Example 57, N-(1-methyl-1H-pyrazol-5-yl)-4-(1-((6-methylpyridin-3-yl)methyl)-1H-benzo[d][1,2,3]triazol-5-yl)pyrimidin-2-amine]

IC50: < 1 µM
Compound: COc1ccc(Cn2nnc3cc(-c4ccnc(N[C@@H](C)CO)n4)ccc32)cc1F [Example 19, (S)-2-((4-(1-(3-fluoro-4-methoxybenzyl)-1H-benzo[d][1,2,3]triazol-5-yl)pyrimidin-2-yl)amino)propan-1-ol]
